Measurements: doi:10.1101/2021.04.22.439970
These are yes or no findings as the source states them, for the method shown. For part of these data: In cells and extracts the contact can be indirect. Some results given as binding are weak or reduced against the parent protein; the word gives no strength.

Sequences of proteins named here, by UniProt entry; tags and fusion partners are left off. A change or cut given only in a name is not applied to a line headed by its entry.
UniProt P22515, whole entry: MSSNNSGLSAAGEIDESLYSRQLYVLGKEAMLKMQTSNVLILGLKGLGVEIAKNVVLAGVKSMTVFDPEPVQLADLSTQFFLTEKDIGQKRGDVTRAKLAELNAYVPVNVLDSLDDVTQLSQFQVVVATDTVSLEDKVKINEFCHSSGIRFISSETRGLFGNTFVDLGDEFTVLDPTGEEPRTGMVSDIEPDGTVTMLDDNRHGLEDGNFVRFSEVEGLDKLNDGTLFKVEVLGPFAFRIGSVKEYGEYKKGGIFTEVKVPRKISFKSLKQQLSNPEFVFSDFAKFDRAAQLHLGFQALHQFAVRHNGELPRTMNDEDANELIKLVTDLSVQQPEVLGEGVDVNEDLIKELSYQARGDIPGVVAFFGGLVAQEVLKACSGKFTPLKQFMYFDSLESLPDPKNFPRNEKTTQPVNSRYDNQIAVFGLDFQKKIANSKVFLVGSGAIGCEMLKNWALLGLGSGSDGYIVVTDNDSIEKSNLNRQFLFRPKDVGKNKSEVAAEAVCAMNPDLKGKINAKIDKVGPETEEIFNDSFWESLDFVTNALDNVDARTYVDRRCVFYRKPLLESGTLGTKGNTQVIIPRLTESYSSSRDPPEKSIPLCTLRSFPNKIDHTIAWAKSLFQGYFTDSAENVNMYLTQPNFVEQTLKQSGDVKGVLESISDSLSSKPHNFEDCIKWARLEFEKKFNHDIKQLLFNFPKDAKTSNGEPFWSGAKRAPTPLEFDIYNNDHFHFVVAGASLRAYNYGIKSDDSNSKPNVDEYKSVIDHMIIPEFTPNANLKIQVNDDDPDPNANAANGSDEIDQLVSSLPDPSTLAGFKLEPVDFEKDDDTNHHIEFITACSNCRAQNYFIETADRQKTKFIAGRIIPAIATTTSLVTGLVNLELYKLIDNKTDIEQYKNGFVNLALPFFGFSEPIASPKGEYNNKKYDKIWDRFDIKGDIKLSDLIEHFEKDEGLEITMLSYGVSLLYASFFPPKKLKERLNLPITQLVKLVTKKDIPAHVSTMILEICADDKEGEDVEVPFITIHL

Columns and labels:
[1] = molecular target: Uba1 (endogenous) (S. cerevisiae (endogenous in yeast cells)) (UniProt P22515); assay: immunoblot of a DTT-reducible high molecular weight
Uba1-myc (S. cerevisiae) [2] = molecular target: Uba1-myc (S. cerevisiae) (UniProt P22515); assay: as above
Uba1-myc (S. cerevisiae) [3] = molecular target: Uba1-myc (S. cerevisiae) (UniProt P22515); assay: co-IP
Rad6-HA (S. cerevisiae) = Rad6-HA (S. cerevisiae) (UniProt P06104); assay: immunoblot of a DTT-reducible high molecular weight
[4] = molecular target: Rad6-FLAG (S. cerevisiae) (UniProt P06104); assay: co-IP

Rad6 (endogenous, untagged) (from UniProt P06104 1-172) (enzyme)
binding [1]: binds

Rad6-HA (from UniProt P06104 1-172) (enzyme)
binding (Uba1-myc (S. cerevisiae) [2]): binds

Rad6^C88S-HA (from UniProt P06104 1-172) (enzyme)
binding (Uba1-myc (S. cerevisiae) [2]): no binding | binding (Uba1-myc (S. cerevisiae) [3]): no binding

Rad6^R7A (from UniProt P06104 1-172) (enzyme)
binding [1]: binds

Rad6^R7A/R11A (from UniProt P06104 1-172) (enzyme)
binding [1]: binds

Rad6^R11A (from UniProt P06104 1-172) (enzyme)
binding [1]: binds

Uba1 (endogenous) (from UniProt P22515 1-1024) (enzyme)
binding (Rad6-HA (S. cerevisiae)): binds

B1: ribosomal protein uS3 (protein, UniProt P05750 1-240)
chain: MVALISKKRKLVADGVFYAELNEFFTRELAEEGYSGVEVRVTPTKTEVIIRATRTQDVLGENGRRINELTLLVQKRFKYAPGTIVLYAERVQDRGLSAVAQAESMKFKLLNGLAIRRAAYGVVRYVMESGAKGCEVVVSGKLRAARAKAMKFADGFLIHSGQPVNDFIDTATRHVLMRQGVLGIKVKIMRDPAKSRTGPKALPDAVTIIEPKEEEPILAPSVKDYRPAEETEAQAEPVEA
binding [4]: binds
